Paper PMC12712926

Sequences of proteins named here, by UniProt entry; tags and fusion partners are left off. Residues count along the entry.
UniProt P42858, residues 1-90: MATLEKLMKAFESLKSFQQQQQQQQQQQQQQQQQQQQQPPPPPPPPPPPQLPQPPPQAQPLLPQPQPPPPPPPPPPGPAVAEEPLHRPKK

Molecular target: T1, CLPB-V5-TurboID (full-length human caseinolytic peptidase B fused to V5 and TurboID) (human) (UniProt Q9H078)
T1 sequence: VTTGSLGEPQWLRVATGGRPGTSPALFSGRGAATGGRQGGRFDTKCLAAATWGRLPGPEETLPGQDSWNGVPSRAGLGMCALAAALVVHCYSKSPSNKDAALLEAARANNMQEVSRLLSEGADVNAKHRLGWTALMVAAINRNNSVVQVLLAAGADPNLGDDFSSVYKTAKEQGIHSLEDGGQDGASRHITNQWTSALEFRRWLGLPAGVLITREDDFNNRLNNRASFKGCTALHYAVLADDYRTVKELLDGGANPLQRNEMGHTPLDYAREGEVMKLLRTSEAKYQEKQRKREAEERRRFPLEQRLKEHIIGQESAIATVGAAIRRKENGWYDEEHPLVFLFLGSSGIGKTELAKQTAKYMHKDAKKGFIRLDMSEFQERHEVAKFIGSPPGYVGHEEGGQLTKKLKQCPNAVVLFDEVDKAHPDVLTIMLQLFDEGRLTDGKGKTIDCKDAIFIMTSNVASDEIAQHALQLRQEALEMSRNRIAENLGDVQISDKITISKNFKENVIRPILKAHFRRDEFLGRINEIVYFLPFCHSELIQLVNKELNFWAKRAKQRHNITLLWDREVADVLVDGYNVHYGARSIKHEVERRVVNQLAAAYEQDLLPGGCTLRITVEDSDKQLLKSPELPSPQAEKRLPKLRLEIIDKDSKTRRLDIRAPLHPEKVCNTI
Assay: proximity labelling; CLPB-V5-TurboID co-expressed with EGFP, EGFP-HTT-Q23 or EGFP-HTT-Q79 in HEK293T cells; 50 uM biotin, 30 min, 37 °C; lysis in 20 mM HEPES-NaOH pH 7.5, 150 mM NaCl, 2 mM CaCl2, 2 mM MgCl2, 1% Triton X-100; streptavidin pull-down of biotinylated proteins and anti-GFP blot (results and legend)

Substance	binding
EGFP-tagged HTT-Q23 (exon 1 fragment of wild-type human huntingtin, aa 1-90) (from UniProt P42858 1-90) (domain or fragment)	binds
EGFP-tagged HTT-Q79 (exon 1 fragment of mutant human huntingtin, aa 1-146) (domain or fragment)	binds

Results are given in words; binding and its absence hold for the method and conditions named. Binding seen in cells or lysates may run through a third protein. A yes stands for co-enrichment or nearness to the bait. Other partners may have been found. Tags and fused reporters may be left off the sequences shown.
